For at least one compound, name, drawing or mass did not settle the structure.
Assay: Drug-drug compatibility test under accelerated stability conditions
Format: physicochemical
Conditions: for flexible substance / content (ARB): HPLC; for content (ARB): first figure of the cell; for property: color, clumping, etc.
Procedure: Specifically, after storing a mixture of ARB and SGLT-2 inhibitor for 2 weeks under accelerated stability test conditions (40 ± 2°C/75 ± 5% relative humidity), changes in the contents of each ingredient and flexible substance and changes in properties (color, clumping, etc.) were analyzed. Olmesartan, Valsartan, and Telmisartan were used as ARBs, and Empagliflozin, Dapagliflozin (Dapagliflozin propanediol monohydrate), and Canagliflozin were used as SGLT-2 inhibitors.

[1] = Acceleration 1 week, 40 ± 2°C/75 ± 5% relative humidity
[2] = Acceleration 2 week, 40 ± 2°C/75 ± 5% relative humidity

In the case of `CCCc1nc(C(C)(C)O)c(C(=O)O)n1Cc1ccc(-c2ccccc2-c2nnn[nH]2)cc1` [Com. Ex. 19, Olmesartan], the flexible substance [1] is reported as 0.1 or more, the “content (ARB)” value [1] is reported as 99.7% and the property [1] is reported as “suitable”. For the same compound, the flexible substance [2] was 0.1 or more, the “content (ARB)” value [2] was 99.7% and the property [2] was “suitable”. The flexible substance (Initial) was 0.1 or less, the “content (ARB)” value (Initial) was 99.9% and the property (Initial) was “suitable”.
